{"sequences": {"note": "Chains of the proteins cited; added tags and fusions are not shown. Lines headed by an entry give the natural chain unless they say otherwise; changes in a name come on top.", "UniProt Q09028": "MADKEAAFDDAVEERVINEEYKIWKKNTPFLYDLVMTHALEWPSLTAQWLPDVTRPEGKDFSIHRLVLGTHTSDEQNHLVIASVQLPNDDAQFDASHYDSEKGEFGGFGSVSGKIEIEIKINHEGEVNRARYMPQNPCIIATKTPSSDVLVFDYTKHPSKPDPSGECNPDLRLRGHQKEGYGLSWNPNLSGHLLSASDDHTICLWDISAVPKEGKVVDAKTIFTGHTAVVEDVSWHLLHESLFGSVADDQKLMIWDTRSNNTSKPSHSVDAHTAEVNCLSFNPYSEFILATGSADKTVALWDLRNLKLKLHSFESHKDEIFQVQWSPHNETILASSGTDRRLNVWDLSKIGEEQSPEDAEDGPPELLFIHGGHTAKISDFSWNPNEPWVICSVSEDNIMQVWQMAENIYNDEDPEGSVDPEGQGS"}, "source": "paper PMC6053364", "key": {"[1]": {"biological_target": "ARMC12 with mutation of Valine217 in pBiFC-VN173 (human) (UniProt Q5T9G4)", "experiment": "split reporter; BiFC: pBiFC-VN173-ARMC12 and pBiFC-VC155-RBBP4 cotransfected into SH-SY5Y cells for 24 h, grown a further 10 h at 37 C, confocal microscopy"}, "[2]": {"biological_target": "T1, ARMC12 in pBiFC-VN173, wild type (human) (UniProt Q5T9G4)", "T1 sequence": "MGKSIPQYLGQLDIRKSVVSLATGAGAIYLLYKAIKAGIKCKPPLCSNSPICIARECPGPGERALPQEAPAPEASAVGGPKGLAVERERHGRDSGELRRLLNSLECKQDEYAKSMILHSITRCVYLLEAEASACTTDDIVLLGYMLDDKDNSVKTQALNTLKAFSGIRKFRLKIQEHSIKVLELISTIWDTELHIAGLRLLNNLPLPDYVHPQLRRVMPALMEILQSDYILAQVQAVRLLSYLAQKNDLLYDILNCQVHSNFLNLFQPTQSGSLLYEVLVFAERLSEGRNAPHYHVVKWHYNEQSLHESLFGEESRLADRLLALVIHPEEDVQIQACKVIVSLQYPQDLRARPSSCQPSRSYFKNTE", "experiment": "split reporter; BiFC: pBiFC-VN173-ARMC12 and pBiFC-VC155-RBBP4 cotransfected into SH-SY5Y cells for 24 h, grown a further 10 h at 37 C, confocal microscopy"}, "[3]": {"biological_target": "FLAG-tagged ARMC12 with mutation of Valine217 (human) (UniProt Q5T9G4)", "experiment": "co-IP; SH-SY5Y cells cotransfected with FLAG-tagged ARMC12 (wild type, truncates or mutant) and HA-tagged RBBP4 (wild type, truncates or mutant); FLAG and HA antibodies, western blot"}, "[4]": {"biological_target": "T2, FLAG-tagged ARMC12, wild type (human) (UniProt Q5T9G4)", "T2 sequence": "T1 sequence", "experiment": "co-IP; SH-SY5Y cells cotransfected with FLAG-tagged ARMC12 (wild type, truncates or mutant) and HA-tagged RBBP4 (wild type, truncates or mutant); FLAG and HA antibodies, western blot"}}, "note": "These are yes or no findings as the source states them, for the method shown. Binding seen in cells or lysates may run through a third protein. For some of these results: Where a sequence is shown, tags or fusion partners need not be part of it.", "data": [{"substance": "RBBP4 in pBiFC-VC155, wild type (from UniProt Q09028 1-425)", "values": [{"measurement": "binding", "setting": "[1]", "value": "no binding"}]}, {"substance": "RBBP4 with mutation of Valine35 in pBiFC-VC155 (from UniProt Q09028)", "values": [{"measurement": "binding", "setting": "[2]", "value": "no binding"}]}, {"substance": "HA-tagged RBBP4, wild type (from UniProt Q09028 1-425)", "values": [{"measurement": "binding", "setting": "[3]", "value": "no binding"}]}, {"substance": "HA-tagged RBBP4 with mutation of Valine35 (from UniProt Q09028)", "values": [{"measurement": "binding", "setting": "[4]", "value": "no binding"}]}]}
